## Library screen at single concentrations

The values are deposited in ChEMBL (CHEMBL3988442, “University of Dundee, Small-Polar-MMV Screening Library” (2021)).

Mtb glucose medium: 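Phenotypic screen: M. tuberculosis growth, glucose 7H9 medium, 3 days; the read-out is not stated. Compounds at 50 µM. The record gives no direction; compounds that gave an IC50 in retests scored well above the rest, so higher reads as more growth inhibition. About 69,000 compounds were tested under these conditions; 1.1% (about 760) showed 50% or more at least once.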
Mtb cholesterol medium: 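Phenotypic screen: M. tuberculosis growth, cholesterol and DPPC medium, 4 days; the read-out is not stated. Compounds at 50 µM. Direction is inferred from retests: higher values go with more growth inhibition. Of about 69,000 compounds tested this way, about 370 (0.54%) reached 50% or more in at least one test.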

Values are the deposited “Percent Effect”, in %.
How 0% and 100% were set is not recorded. Most values in the screen are low, and negative values occur.
This is an unselected part of the compounds tested.
Two or more numbers in one place are separate tests of the same structure; such repeats can differ widely.

{"smiles": "CCC(CC)C(=O)Nc1ccc2oc(=O)n(CCN(C)C)c2c1", "Mtb glucose medium": -23.32, "Mtb cholesterol medium": "-22.86 & -14.12"}
{"smiles": "CCC(CO)N(Cc1ccccn1)C(=O)c1ccc(CSC)o1", "stereo": "stereo not shown", "Mtb glucose medium": 6.806, "Mtb cholesterol medium": "-1.121 & 8.352"}
{"smiles": "CS(=O)(=O)N1CCOCC2(CCN(Cc3ccoc3)CC2)C1.O=C(O)C(F)(F)F", "Mtb glucose medium": -3.67, "Mtb cholesterol medium": -7.605}
{"smiles": "CC(O)CN1CCC(CN(C)Cc2ccc(C(N)=O)cc2)CC1", "stereo": "stereo not shown", "Mtb glucose medium": 6.866, "Mtb cholesterol medium": 12.45}
{"smiles": "CC1(C)CC(CC(=O)N2CC(C)(C)[C@@](C)(O)C2)CC(C)(C)N1", "Mtb glucose medium": 19.9, "Mtb cholesterol medium": "1.626 & -18.61"}
{"smiles": "COc1cccc(N2CCN(CC(O)c3ccc(C)cc3)CC2)c1", "stereo": "stereo not shown", "Mtb glucose medium": "9.89 & -5.968", "Mtb cholesterol medium": -4.544}
{"smiles": "Cc1csc(N2CCN(CC(=O)NCc3ccccn3)CC2C)n1", "stereo": "stereo not shown", "Mtb glucose medium": 16.77, "Mtb cholesterol medium": 6.206}
{"smiles": "O=C1CN(C(=O)CSC2CCCc3ccccc32)CCN1", "stereo": "stereo not shown", "Mtb glucose medium": 27.55, "Mtb cholesterol medium": 4.632}
{"smiles": "NC(=O)c1ccc(N2CCCCC2)c(NC(=O)c2cc(F)ccc2F)c1", "Mtb glucose medium": "-24.02 & 3.328", "Mtb cholesterol medium": -15.78}
{"smiles": "Cc1nccc(CNS(=O)(=O)N2CCCC2c2ccc(C)o2)n1", "stereo": "stereo not shown", "Mtb glucose medium": "-3.676 & -0.9266", "Mtb cholesterol medium": "-5.823 & -11.99"}
{"smiles": "CN(Cc1cccc(Cl)c1)S(=O)(=O)N1CCOCC1", "Mtb glucose medium": "5.727 & 12.42", "Mtb cholesterol medium": -5.901}
{"smiles": "CN1CCCc2cc(CNC(=O)c3cccnc3O)ccc21", "Mtb glucose medium": 8.342, "Mtb cholesterol medium": 15}
{"smiles": "O=C(O)C(F)(F)F.O=C(O)C(F)(F)F.[H][C@@]12CN(Cc3cnn(C)c3)CCO[C@]1([H])CN(Cc1ccoc1)C2", "Mtb glucose medium": "21.13 & 15.05", "Mtb cholesterol medium": "16.78 & -7.488"}
{"smiles": "Cc1oc(-c2ccccc2)nc1CC(=O)NC1=NCCS1", "Mtb glucose medium": "-0.1198 & -13.04", "Mtb cholesterol medium": -24.64}
{"smiles": "Cc1nc(N2CCC(CN3CCCC3)CC2)c2cnn(C)c2n1", "Mtb glucose medium": 10.07, "Mtb cholesterol medium": 17.55}
{"smiles": "CNCCc1nc2cc(F)ccc2[nH]1.Cl.Cl", "Mtb glucose medium": -5.273, "Mtb cholesterol medium": -1.798}
{"smiles": "O=C(NCCS(=O)(=O)N1CCN(c2ncccn2)CC1)C1CC1", "Mtb glucose medium": -6.53, "Mtb cholesterol medium": -4.387}
{"smiles": "Cc1nc(-c2cccc(C(=O)O)c2)cc(C2CCCN(C(C)C)C2)n1", "stereo": "stereo not shown", "Mtb glucose medium": -38.73, "Mtb cholesterol medium": -14.39}
{"smiles": "CCOC(=O)NCCC(=O)NCc1ccc(Oc2cccc(F)c2)nc1", "Mtb glucose medium": "-5.713 & 13.79", "Mtb cholesterol medium": -9.235}
{"smiles": "COCc1ncn2c1CN(S(=O)(=O)c1cccc(OC)c1)CC2", "Mtb glucose medium": "0.2421 & -8.239", "Mtb cholesterol medium": -8.213}
{"smiles": "c1cncc(NCCNC2CCSC2)c1", "stereo": "stereo not shown", "Mtb glucose medium": -29.33, "Mtb cholesterol medium": 0.05532}
{"smiles": "CC(=O)N1CCC(C(=O)N2CCC2c2nc(-c3ccc(C)s3)no2)CC1", "stereo": "stereo not shown", "Mtb glucose medium": -15.67, "Mtb cholesterol medium": "-22.1 & -30.15"}
{"smiles": "Cc1cccc(-c2nccnc2C2CCCN(C)C2)c1C", "stereo": "stereo not shown", "Mtb glucose medium": 13.69, "Mtb cholesterol medium": "0.2501 & -9.232"}
{"smiles": "O=c1c2cnc(N3CCOCC3)nc2ccn1-c1ccccc1", "Mtb glucose medium": -19.35, "Mtb cholesterol medium": "-0.5021 & -3.875"}
{"smiles": "CCN(C)c1ncnc2c1CCN(Cc1ccoc1)CC2", "Mtb glucose medium": 2.931, "Mtb cholesterol medium": -0.2553}

The last 3 entries again:

{"smiles": "Cc1cccc(-c2nccnc2C2CCCN(C)C2)c1C", "stereo": "stereo not shown", "Mtb glucose medium": 13.69, "Mtb cholesterol medium": "0.2501 & -9.232"}
{"smiles": "O=c1c2cnc(N3CCOCC3)nc2ccn1-c1ccccc1", "Mtb glucose medium": -19.35, "Mtb cholesterol medium": "-0.5021 & -3.875"}
{"smiles": "CCN(C)c1ncnc2c1CCN(Cc1ccoc1)CC2", "Mtb glucose medium": 2.931, "Mtb cholesterol medium": -0.2553}